From paper PMC11211886 (Frontiers in Pharmacology, 2024)

Test: Caco-2 bidirectional transport permeability
Type: in vitro ADME
Conditions: human
Method: The passage number of cells used in this study was 39. Non-specific binding to the device surfaces and the aqueous solubility of test compounds were tested before the transport experiment. […] The integrity of the monolayer was estimated by measuring transepithelial electrical resistance (TEER). Only the monolayers with TEER over 150 Ω were used for the studies. […] The bidirectional transport studies were initiated by adding amdizalisib to either the apical (A) or basolateral (B) side of the Transwell® Insert.

For `CC(C)NCC(O)COc1ccc(CC(N)=O)cc1` (stereo not drawn) [Atenolol, reference compound], the Papp A→B at 60 min, 10 µM was < 0.431 ×10⁻⁶ cm/s, the Papp B→A at 60 min, 10 µM was 0.32 ×10⁻⁶ cm/s and the efflux ratio at 60 min, 10 µM was > 0.742.
